# From the supplement of paper PMC8728848
# Some of the results follow.
# B1: SynCAM (Mus musculus) (protein)
# chain: MASAVLPSGSQCAAAAAVAAAAAPPGLRLRLLLLLLSAAALIPTGDGQNLFTKDVTVIEGEVATISCQVNKSDDSVIQLLNPNRQTIYFRDFRPLKDSRFQLLNFSSSELKVSLTNVSISDEGRYFCQLYTDPPQESYTTITVLVPPRNLMIDIQKDTAVEGEEIEVNCTAMASKPATTIRWFKGNKELKGKSEVEEWSDMYTVTSQLMLKVHKEDDGVPVICQVEHPAVTGNLQTQRYLEVQYKPQVHIQMTYPLQGLTREGDAFELTCEAIGKPQPVMVTWVRVDDEMPQHAVLSGPNLFINNLNKTDNGTYRCEASNIVGKAHSDYMLYVYDPPTTIPPP
# How the values were obtained:
# Assay in all cases: glycan array binding signal (z-score within array); higher = stronger binding
# Details in all cases: glycan notation: IUPAC condensed, linker removed
# [1] = molecular target: Fuc(a1-2)Gal6S(b1-3)GlcNAc6S
# Outline: (§1)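 The binding signal is a Z-score computed within each array and averaged over linkers. Arrays of the same protein sequence at different concentrations or buffers were also averaged together. Data originate from 3228 arrays in the Consortium for Functional Glycomics database, kept only where the protein sequence was available.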
# Fuc(a1-2)Gal6S(b1-4)Glc = molecular target: Fuc(a1-2)Gal6S(b1-4)Glc
# Outline: as §1
# [2] = molecular target: Fuc(a1-2)Gal6S(b1-4)Glc6S
# Outline: as §1
# Fuc(a1-2)[Gal(a1-3)]Gal = molecular target: Fuc(a1-2)[Gal(a1-3)]Gal
# Outline: as §1
# [3] = molecular target: Fuc(a1-2)[Gal(a1-3)]Gal(b1-3)GalNAc
# Outline: as §1
# [4] = molecular target: Fuc(a1-2)[Gal(a1-3)]Gal(b1-3)GalNAc(b1-3)Gal(a1-4)Gal(b1-4)Glc
# Outline: as §1
# [5] = molecular target: Fuc(a1-2)[Gal(a1-3)]Gal(b1-3)GlcNAc
# Outline: as §1
# [6] = molecular target: Fuc(a1-2)[Gal(a1-3)]Gal(b1-3)GlcNAc(b1-2)Man(a1-3)[Fuc(a1-2)[Gal(a1-3)]Gal(b1-3)GlcNAc(b1-2)Man(a1-6)]Man(b1-4)GlcNAc(b1-4)GlcNAc
# Outline: as §1
# [7] = molecular target: Fuc(a1-2)[Gal(a1-3)]Gal(b1-3)GlcNAc(b1-2)Man(a1-3)[Fuc(a1-2)[Gal(a1-3)]Gal(b1-3)GlcNAc(b1-2)Man(a1-6)]Man(b1-4)GlcNAc(b1-4)[Fuc(a1-6)]GlcNAc
# Outline: as §1
# [8] = molecular target: Fuc(a1-2)[Gal(a1-3)]Gal(b1-3)GlcNAc(b1-3)GalNAc
# Outline: as §1
# [9] = molecular target: Fuc(a1-2)[Gal(a1-3)]Gal(b1-3)GlcNAc(b1-6)GalNAc
# Outline: as §1
# [10] = molecular target: Fuc(a1-2)[Gal(a1-3)]Gal(b1-4)Glc
# Outline: as §1
# [11] = molecular target: Fuc(a1-2)[Gal(a1-3)]Gal(b1-4)GlcNAc
# Outline: as §1
# [12] = molecular target: Fuc(a1-2)[Gal(a1-3)]Gal(b1-4)GlcNAc(b1-2)Man
# Outline: as §1
# [13] = molecular target: Fuc(a1-2)[Gal(a1-3)]Gal(b1-4)GlcNAc(b1-2)Man(a1-3)[Fuc(a1-2)[Gal(a1-3)]Gal(b1-4)GlcNAc(b1-2)Man(a1-6)]Man(b1-4)GlcNAc(b1-4)GlcNAc
# Outline: as §1
# [14] = molecular target: Fuc(a1-2)[Gal(a1-3)]Gal(b1-4)GlcNAc(b1-2)Man(a1-3)[Fuc(a1-2)[Gal(a1-3)]Gal(b1-4)GlcNAc(b1-2)Man(a1-6)]Man(b1-4)GlcNAc(b1-4)[Fuc(a1-6)]GlcNAc
# Outline: as §1
# [15] = molecular target: Fuc(a1-2)[Gal(a1-3)]Gal(b1-4)GlcNAc(b1-3)GalNAc
# Outline: as §1
# [16] = molecular target: Fuc(a1-2)[Gal(a1-3)]Gal(b1-4)GlcNAc(b1-3)[Fuc(a1-2)[Gal(a1-3)]Gal(b1-4)GlcNAc(b1-6)]GalNAc
# Outline: as §1
# [17] = molecular target: Fuc(a1-2)[Gal(a1-3)]Gal(b1-4)GlcNAc(b1-6)GalNAc
# Outline: as §1
# [18] = molecular target: Fuc(a1-2)[Gal(a1-3)]Gal(b1-4)[Fuc(a1-3)]Glc
# Outline: as §1
# [19] = molecular target: Fuc(a1-2)[Gal(a1-3)]Gal(b1-4)[Fuc(a1-3)]GlcNAc
# Outline: as §1
# [20] = molecular target: Fuc(a1-2)[Gal(a1-3)]Gal(b1-4)[Fuc(a1-3)]GlcNAc(b1-3)GalNAc
# Outline: as §1
# [21] = molecular target: Fuc(a1-2)[Gal(a1-4)]Gal(b1-4)GlcNAc
# Outline: as §1
# [22] = molecular target: Fuc(a1-2)[GalNAc(a1-3)]Gal
# Outline: as §1
# [23] = molecular target: Fuc(a1-2)[GalNAc(a1-3)]Gal(b1-3)GalNAc(a1-3)[Fuc(a1-2)]Gal(b1-4)GlcNAc
# Outline: as §1
# [24] = molecular target: Fuc(a1-2)[GalNAc(a1-3)]Gal(b1-3)GalNAc(b1-3)Gal(a1-4)Gal(b1-4)Glc
# Outline: as §1
# [25] = molecular target: Fuc(a1-2)[GalNAc(a1-3)]Gal(b1-3)GlcNAc
# Outline: as §1
# [26] = molecular target: Fuc(a1-2)[GalNAc(a1-3)]Gal(b1-3)GlcNAc(b1-2)Man(a1-3)[Fuc(a1-2)[GalNAc(a1-3)]Gal(b1-3)GlcNAc(b1-2)Man(a1-6)]Man(b1-4)GlcNAc(b1-4)GlcNAc
# Outline: as §1
# [27] = molecular target: Fuc(a1-2)[GalNAc(a1-3)]Gal(b1-3)GlcNAc(b1-2)Man(a1-3)[Fuc(a1-2)[GalNAc(a1-3)]Gal(b1-3)GlcNAc(b1-2)Man(a1-6)]Man(b1-4)GlcNAc(b1-4)[Fuc(a1-6)]GlcNAc
# Outline: as §1
# [28] = molecular target: Fuc(a1-2)[GalNAc(a1-3)]Gal(b1-3)GlcNAc(b1-3)GalNAc
# Outline: as §1
# [29] = molecular target: Fuc(a1-2)[GalNAc(a1-3)]Gal(b1-3)GlcNAc(b1-6)GalNAc
# Outline: as §1
# [30] = molecular target: Fuc(a1-2)[GalNAc(a1-3)]Gal(b1-4)Glc
# Outline: as §1
# [31] = molecular target: Fuc(a1-2)[GalNAc(a1-3)]Gal(b1-4)GlcNAc
# Outline: as §1
# [32] = molecular target: Fuc(a1-2)[GalNAc(a1-3)]Gal(b1-4)GlcNAc(b1-2)Man
# Outline: as §1
# [33] = molecular target: Fuc(a1-2)[GalNAc(a1-3)]Gal(b1-4)GlcNAc(b1-2)Man(a1-3)[Fuc(a1-2)[GalNAc(a1-3)]Gal(b1-4)GlcNAc(b1-2)Man(a1-6)]Man(b1-4)GlcNAc(b1-4)GlcNAc
# Outline: as §1
# [34] = molecular target: Fuc(a1-2)[GalNAc(a1-3)]Gal(b1-4)GlcNAc(b1-2)Man(a1-3)[Fuc(a1-2)[GalNAc(a1-3)]Gal(b1-4)GlcNAc(b1-2)Man(a1-6)]Man(b1-4)GlcNAc(b1-4)[Fuc(a1-6)]GlcNAc
# Outline: as §1
# [35] = molecular target: Fuc(a1-2)[GalNAc(a1-3)]Gal(b1-4)GlcNAc(b1-3)Gal(b1-4)GlcNAc
# Outline: as §1
# [36] = molecular target: Fuc(a1-2)[GalNAc(a1-3)]Gal(b1-4)GlcNAc(b1-3)Gal(b1-4)GlcNAc(b1-3)Gal(b1-4)GlcNAc
# Outline: as §1
# [37] = molecular target: Fuc(a1-2)[GalNAc(a1-3)]Gal(b1-4)GlcNAc(b1-3)GalNAc
# Outline: as §1
# [38] = molecular target: Fuc(a1-2)[GalNAc(a1-3)]Gal(b1-4)GlcNAc(b1-3)[Fuc(a1-2)[GalNAc(a1-3)]Gal(b1-4)GlcNAc(b1-6)]GalNAc
# Outline: as §1
# [39] = molecular target: Fuc(a1-2)[GalNAc(a1-3)]Gal(b1-4)GlcNAc(b1-6)GalNAc
# Outline: as §1
# [40] = molecular target: Fuc(a1-2)[GalNAc(a1-3)]Gal(b1-4)[Fuc(a1-3)]GlcNAc
# Outline: as §1
# [41] = molecular target: Fuc(a1-2)[GalNAc(a1-3)]Gal(b1-4)[Fuc(a1-3)]GlcNAc(b1-3)GalNAc
# Outline: as §1
# [42] = molecular target: Fuc(a1-2)[GalNAc(a1-4)]Gal(b1-4)GlcNAc
# Outline: as §1
# [43] = molecular target: Fuc(a1-2)[GalNAc(b1-3)]Gal
# Outline: as §1
binder,measurement,setting,value
B1,glycan array binding signal (z-score),[1],0.177
same,glycan array binding signal (z-score),Fuc(a1-2)Gal6S(b1-4)Glc,-0.473
same,glycan array binding signal (z-score),[2],-0.488
same,glycan array binding signal (z-score),Fuc(a1-2)[Gal(a1-3)]Gal,0.589
same,glycan array binding signal (z-score),[3],0.091
same,glycan array binding signal (z-score),[4],-0.669
same,glycan array binding signal (z-score),[5],0.096
same,glycan array binding signal (z-score),[6],-0.264
same,glycan array binding signal (z-score),[7],-0.761
same,glycan array binding signal (z-score),[8],0.031
same,glycan array binding signal (z-score),[9],-1.4
same,glycan array binding signal (z-score),[10],-0.671
same,glycan array binding signal (z-score),[11],-1.34
same,glycan array binding signal (z-score),[12],0.739
same,glycan array binding signal (z-score),[13],0.729
same,glycan array binding signal (z-score),[14],-0.402
same,glycan array binding signal (z-score),[15],-0.463
same,glycan array binding signal (z-score),[16],-0.161
same,glycan array binding signal (z-score),[17],-0.006
same,glycan array binding signal (z-score),[18],0.197
same,glycan array binding signal (z-score),[19],0.293
same,glycan array binding signal (z-score),[20],-0.466
same,glycan array binding signal (z-score),[21],0.231
same,glycan array binding signal (z-score),[22],0.275
same,glycan array binding signal (z-score),[23],-0.208
same,glycan array binding signal (z-score),[24],0.235
same,glycan array binding signal (z-score),[25],-0.544
same,glycan array binding signal (z-score),[26],-0.574
same,glycan array binding signal (z-score),[27],-0.627
same,glycan array binding signal (z-score),[28],0.487
same,glycan array binding signal (z-score),[29],0.367
same,glycan array binding signal (z-score),[30],0.01
same,glycan array binding signal (z-score),[31],-0.651
same,glycan array binding signal (z-score),[32],0.164
same,glycan array binding signal (z-score),[33],-0.287
same,glycan array binding signal (z-score),[34],-0.535
same,glycan array binding signal (z-score),[35],-1.5
same,glycan array binding signal (z-score),[36],-0.416
same,glycan array binding signal (z-score),[37],-0.516
same,glycan array binding signal (z-score),[38],-0.716
same,glycan array binding signal (z-score),[39],-0.149
same,glycan array binding signal (z-score),[40],-0.028
same,glycan array binding signal (z-score),[41],0.535
same,glycan array binding signal (z-score),[42],-0.052
same,glycan array binding signal (z-score),[43],0.423

# Reformatted with bars between the fields: part of the list above
binder | measurement | setting | value
B1 | glycan array binding signal (z-score) | [12] | 0.739
same | glycan array binding signal (z-score) | [14] | -0.402
same | glycan array binding signal (z-score) | [37] | -0.516
